Results published in the supplement of paper PMC6411743.
± gives the standard deviation of the averaged measurements. The list shows a part of the results, in another mix than the full data.

Chains of the proteins cited; added tags and fusions are not shown. Lines headed by an entry give the natural chain unless they say otherwise; changes in a name come on top.
UniProt P07766, whole entry: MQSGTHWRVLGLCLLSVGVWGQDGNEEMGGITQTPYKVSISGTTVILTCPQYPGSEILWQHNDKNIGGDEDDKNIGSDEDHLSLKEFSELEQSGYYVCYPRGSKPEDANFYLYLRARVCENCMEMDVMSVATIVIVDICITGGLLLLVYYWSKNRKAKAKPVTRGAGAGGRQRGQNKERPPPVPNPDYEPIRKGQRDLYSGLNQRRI
UniProt P40855: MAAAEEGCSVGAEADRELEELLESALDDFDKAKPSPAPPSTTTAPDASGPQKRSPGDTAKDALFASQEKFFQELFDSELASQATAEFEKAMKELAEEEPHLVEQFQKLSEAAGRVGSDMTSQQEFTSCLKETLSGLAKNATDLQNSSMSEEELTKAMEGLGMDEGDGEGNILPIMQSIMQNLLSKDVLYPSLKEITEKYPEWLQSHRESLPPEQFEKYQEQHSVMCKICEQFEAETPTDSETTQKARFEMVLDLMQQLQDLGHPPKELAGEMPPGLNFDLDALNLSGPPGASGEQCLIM
UniProt Q9BY41: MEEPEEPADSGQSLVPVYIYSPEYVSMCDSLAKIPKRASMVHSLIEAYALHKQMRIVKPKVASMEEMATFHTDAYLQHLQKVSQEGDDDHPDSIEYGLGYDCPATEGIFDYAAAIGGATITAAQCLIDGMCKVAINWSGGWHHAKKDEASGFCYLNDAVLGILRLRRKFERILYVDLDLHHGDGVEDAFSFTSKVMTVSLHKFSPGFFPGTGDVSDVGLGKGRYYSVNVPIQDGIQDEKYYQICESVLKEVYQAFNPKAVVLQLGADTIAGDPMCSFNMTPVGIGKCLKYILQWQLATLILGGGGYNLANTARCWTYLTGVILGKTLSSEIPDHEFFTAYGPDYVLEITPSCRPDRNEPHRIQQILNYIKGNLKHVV
UniProt Q9NQV6: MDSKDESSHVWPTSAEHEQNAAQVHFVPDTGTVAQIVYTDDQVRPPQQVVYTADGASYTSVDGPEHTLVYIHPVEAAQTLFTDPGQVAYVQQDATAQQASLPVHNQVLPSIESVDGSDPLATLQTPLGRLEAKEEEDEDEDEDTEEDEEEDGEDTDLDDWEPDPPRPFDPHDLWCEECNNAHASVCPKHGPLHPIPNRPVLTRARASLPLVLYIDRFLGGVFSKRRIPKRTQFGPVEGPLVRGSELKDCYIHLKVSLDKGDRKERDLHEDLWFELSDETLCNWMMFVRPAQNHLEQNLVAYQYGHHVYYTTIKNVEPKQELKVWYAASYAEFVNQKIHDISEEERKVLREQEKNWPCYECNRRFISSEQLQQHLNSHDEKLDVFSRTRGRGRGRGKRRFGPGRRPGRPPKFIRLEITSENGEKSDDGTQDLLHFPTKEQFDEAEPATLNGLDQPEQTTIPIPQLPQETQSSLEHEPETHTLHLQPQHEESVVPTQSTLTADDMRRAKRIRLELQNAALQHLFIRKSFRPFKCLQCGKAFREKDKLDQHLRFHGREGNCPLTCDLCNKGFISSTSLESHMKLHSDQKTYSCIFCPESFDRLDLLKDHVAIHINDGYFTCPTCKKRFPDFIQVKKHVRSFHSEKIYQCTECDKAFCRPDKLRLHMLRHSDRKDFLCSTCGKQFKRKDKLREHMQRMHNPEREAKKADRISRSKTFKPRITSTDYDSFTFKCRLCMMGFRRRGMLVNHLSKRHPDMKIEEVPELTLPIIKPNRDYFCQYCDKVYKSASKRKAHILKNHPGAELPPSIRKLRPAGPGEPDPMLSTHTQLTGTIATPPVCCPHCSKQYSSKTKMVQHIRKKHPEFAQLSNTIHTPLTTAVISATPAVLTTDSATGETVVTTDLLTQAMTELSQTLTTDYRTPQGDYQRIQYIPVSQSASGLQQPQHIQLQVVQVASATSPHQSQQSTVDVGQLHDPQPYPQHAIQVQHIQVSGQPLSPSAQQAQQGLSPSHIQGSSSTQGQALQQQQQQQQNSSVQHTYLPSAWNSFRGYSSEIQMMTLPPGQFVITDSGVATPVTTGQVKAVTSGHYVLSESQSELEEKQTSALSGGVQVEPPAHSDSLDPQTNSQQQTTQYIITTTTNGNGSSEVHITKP
UniProt P09496: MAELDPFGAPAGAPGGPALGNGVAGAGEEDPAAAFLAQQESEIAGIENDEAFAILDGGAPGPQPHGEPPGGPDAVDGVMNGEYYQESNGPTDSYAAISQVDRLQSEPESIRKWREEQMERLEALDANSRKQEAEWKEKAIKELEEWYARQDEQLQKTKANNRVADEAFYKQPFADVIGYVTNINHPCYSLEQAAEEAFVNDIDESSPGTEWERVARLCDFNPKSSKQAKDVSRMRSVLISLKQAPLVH
UniProt E9PAV3, whole entry, looked up: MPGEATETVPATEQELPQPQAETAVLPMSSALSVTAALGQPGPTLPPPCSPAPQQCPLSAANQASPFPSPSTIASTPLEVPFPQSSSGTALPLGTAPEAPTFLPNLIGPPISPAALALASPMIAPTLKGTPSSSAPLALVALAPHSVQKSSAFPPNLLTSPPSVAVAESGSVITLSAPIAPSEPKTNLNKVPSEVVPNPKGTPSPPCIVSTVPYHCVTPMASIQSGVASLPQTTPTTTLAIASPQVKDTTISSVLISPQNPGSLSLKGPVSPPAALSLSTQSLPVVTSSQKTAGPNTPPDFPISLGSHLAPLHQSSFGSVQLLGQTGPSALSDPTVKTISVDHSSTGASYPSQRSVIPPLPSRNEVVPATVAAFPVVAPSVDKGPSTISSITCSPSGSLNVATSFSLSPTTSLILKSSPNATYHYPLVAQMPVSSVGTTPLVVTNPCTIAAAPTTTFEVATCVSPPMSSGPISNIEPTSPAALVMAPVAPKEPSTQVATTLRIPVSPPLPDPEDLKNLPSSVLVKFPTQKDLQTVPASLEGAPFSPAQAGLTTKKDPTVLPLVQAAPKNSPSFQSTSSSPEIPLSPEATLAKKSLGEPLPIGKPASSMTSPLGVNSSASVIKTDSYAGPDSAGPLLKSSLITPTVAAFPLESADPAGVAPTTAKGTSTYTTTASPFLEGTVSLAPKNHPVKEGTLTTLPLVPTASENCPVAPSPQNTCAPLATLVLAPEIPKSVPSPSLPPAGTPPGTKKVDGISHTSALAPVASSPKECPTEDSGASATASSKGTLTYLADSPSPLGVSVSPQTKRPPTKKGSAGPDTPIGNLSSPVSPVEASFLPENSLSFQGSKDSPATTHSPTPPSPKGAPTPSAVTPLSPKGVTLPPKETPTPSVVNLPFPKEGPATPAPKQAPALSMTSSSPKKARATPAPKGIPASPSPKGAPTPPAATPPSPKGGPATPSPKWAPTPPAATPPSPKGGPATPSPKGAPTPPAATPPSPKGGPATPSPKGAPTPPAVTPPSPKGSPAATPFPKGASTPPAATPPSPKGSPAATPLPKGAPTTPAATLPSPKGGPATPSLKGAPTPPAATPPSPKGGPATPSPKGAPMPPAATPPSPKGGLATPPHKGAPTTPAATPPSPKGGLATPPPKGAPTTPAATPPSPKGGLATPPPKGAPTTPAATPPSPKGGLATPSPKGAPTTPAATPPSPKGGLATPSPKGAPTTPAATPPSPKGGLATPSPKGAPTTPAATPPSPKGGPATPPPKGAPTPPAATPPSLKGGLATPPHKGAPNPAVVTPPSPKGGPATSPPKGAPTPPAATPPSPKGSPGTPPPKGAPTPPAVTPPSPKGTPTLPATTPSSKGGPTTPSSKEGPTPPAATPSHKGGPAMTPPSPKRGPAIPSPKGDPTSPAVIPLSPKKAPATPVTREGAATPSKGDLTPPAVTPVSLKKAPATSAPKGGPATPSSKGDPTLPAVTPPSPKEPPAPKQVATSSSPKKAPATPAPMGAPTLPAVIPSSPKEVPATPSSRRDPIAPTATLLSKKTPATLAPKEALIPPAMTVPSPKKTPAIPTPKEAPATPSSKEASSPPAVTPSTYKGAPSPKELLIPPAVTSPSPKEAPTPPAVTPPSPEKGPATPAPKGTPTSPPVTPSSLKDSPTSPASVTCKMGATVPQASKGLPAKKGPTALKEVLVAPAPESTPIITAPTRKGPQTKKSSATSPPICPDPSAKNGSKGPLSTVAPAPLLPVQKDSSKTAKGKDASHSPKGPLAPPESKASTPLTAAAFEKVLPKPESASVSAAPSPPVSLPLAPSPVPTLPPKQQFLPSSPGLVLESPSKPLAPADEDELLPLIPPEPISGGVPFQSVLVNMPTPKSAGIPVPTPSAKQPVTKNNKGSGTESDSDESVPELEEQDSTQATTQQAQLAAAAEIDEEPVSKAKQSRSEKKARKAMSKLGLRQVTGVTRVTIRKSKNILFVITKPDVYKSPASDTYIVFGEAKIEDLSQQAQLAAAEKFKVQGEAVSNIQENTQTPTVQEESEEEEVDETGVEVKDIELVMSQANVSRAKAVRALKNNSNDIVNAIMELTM
UniProt Q15436: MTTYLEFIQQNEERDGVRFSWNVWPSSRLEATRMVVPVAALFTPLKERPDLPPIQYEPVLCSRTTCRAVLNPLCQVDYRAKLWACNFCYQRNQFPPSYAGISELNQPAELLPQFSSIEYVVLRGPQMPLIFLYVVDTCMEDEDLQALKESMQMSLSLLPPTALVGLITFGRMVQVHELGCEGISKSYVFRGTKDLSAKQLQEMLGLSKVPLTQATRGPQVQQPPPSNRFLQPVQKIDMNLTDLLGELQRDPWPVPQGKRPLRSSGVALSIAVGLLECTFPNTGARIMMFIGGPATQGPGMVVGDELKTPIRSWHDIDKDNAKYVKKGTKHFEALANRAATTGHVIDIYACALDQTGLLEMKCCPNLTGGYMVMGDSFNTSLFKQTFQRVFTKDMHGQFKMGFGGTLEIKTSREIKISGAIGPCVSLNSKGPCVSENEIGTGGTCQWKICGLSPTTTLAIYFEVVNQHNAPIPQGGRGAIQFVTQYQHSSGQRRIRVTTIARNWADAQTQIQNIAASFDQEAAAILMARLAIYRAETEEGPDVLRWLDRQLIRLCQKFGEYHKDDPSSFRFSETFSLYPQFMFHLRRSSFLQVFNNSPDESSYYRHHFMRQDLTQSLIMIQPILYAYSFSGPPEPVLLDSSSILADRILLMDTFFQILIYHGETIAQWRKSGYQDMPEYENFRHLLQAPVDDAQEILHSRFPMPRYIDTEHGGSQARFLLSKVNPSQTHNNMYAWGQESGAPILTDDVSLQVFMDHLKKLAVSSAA
UniProt Q8N3A8: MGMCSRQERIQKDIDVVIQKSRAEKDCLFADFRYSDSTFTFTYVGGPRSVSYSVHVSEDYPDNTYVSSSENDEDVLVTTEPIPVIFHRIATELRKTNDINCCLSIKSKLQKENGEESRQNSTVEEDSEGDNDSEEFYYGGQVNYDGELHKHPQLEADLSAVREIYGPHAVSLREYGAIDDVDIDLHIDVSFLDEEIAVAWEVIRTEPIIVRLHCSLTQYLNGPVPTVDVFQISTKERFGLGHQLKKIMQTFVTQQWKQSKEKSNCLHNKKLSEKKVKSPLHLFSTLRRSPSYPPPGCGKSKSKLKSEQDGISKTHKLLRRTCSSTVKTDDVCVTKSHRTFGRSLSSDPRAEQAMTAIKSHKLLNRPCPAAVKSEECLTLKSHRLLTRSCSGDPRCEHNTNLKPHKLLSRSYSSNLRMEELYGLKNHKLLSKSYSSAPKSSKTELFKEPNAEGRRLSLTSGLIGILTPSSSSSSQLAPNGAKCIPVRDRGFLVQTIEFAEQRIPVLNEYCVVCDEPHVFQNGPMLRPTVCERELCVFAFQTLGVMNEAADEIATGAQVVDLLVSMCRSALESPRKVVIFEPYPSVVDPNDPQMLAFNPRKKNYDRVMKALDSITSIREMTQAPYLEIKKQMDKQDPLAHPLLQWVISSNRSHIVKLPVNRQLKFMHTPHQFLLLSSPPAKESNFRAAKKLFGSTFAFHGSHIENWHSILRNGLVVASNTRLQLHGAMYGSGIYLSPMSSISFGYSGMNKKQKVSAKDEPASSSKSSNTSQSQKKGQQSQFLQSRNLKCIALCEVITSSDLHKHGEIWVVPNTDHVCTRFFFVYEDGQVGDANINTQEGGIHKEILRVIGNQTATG
UniProt Q15631: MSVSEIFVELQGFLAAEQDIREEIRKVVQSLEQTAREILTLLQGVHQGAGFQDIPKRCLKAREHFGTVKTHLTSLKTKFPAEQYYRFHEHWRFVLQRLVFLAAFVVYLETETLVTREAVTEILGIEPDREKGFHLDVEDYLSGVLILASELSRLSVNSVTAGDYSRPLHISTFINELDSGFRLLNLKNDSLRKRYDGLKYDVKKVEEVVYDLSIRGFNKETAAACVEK
UniProt Q06609, whole entry: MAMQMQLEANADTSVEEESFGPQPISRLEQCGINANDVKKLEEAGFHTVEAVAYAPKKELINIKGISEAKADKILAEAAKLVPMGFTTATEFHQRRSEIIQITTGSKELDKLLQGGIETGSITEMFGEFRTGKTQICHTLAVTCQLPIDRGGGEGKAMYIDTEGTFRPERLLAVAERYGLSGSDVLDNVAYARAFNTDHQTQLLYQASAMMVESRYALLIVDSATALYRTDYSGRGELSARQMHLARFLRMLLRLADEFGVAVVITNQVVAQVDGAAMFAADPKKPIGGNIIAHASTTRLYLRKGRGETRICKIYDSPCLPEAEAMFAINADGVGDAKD

Compound: Nc1ncnc2c1ncn2[C@@H]1O[C@H](COP(=O)(O)OP(=O)(O)OP(=O)(O)O)[C@@H](O)[C@H]1O [adenosine triphosphate]
Experiment: NP40-soluble protein abundance relative to vehicle (solubility fold change) (ratio); higher = more soluble protein in presence of ATP
How it was run: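 Eight concentrations, 0.1 to 10 mM, were tested on Jurkat crude lysate for 10 min at room temperature and then 3 min at 37 °C, in three independent experiments. The lysate was solubilised with 0.8% NP40 and benzonase, ultracentrifuged, and the supernatant TMT-labelled for LC-MS/MS. Each value is the fold change against the detergent-processed vehicle in its own replicate, from vsn-normalised intensities.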

Target	NP40-soluble protein abundance (concentration: 1mM)	NP40-soluble protein abundance (concentration: 2mM)	NP40-soluble protein abundance (concentration: 4mM)	NP40-soluble protein abundance (concentration: 6mM)	NP40-soluble protein abundance (concentration: 8mM)	NP40-soluble protein abundance (concentration: 10mM)
G3V5X4 and related entries (UniProt Q8WXH0)	1.01 ± 0.015	0.986 ± 0.016	0.97 ± 0.022	0.98 ± 0.028	0.97 ± 0.023	0.988 ± 0.027
F8WB06 and related entries (UniProt Q99700)	1 ± 0.014	1.04 ± 0.026	1.09 ± 0.04	1.15 ± 0.07	1.14 ± 0.034	1.17 ± 0.041
G5E9C0 and related entries (UniProt Q9HB58)	1.11 ± 0.11	1.11 ± 0.13	1.14 ± 0.16	1.23 ± 0.17	1.28 ± 0.14	1.36 ± 0.12
F5H538 and related entries (UniProt Q9Y6R4)	1.04 ± 0.05	1.05 ± 0.13	1.09 ± 0.17	1.11 ± 0.21	1.11 ± 0.23	1.16 ± 0.31
E9PSH8 and related entries (UniProt P07766)	1.01 ± 0.044	1 ± 0.017	0.939 ± 0.022	0.995 ± 0.013	0.977 ± 0.036	0.976 ± 0.021
F5H8H2 and related entries (UniProt Q03426)	1.03 ± 0.083	1.03 ± 0.065	1.03 ± 0.047	1 ± 0.082	1.03 ± 0.1	1.01 ± 0.061
F2Z388 and related entries (UniProt P42766)	0.973 ± 0.051	0.991 ± 0.035	1.02 ± 0.039	0.966 ± 0.068	0.644 ± 0.3	1.067 ± 0.0039
F8WC89 (UniProt A6NKF1)	0.838 ± 0.04	0.878 ± 0.022	0.881 ± 0.027	0.875 ± 0.1	0.883 ± 0.018	0.967 ± 0.036
E9PGN6 and related entries (UniProt Q9UI43+E9PGN6)	0.986 ± 0.011	1.09 ± 0.12	1.13 ± 0.11	1.2 ± 0.12	1.07 ± 0.025	1.08 ± 0.02
G3V3G9 (UniProt P40855)	0.965 ± 0.018	0.997 ± 0.019	0.973 ± 0.01	0.97 ± 0.015	0.972 ± 0.019	0.982 ± 0.022
E5RJR5 and related entries (UniProt P63208)	0.937 ± 0.089	0.96 ± 0.056	0.937 ± 0.048	0.99 ± 0.11	0.947 ± 0.018	0.899 ± 0.063
E5RHW4 and related entries (UniProt O94905)	1.02 ± 0.083	0.943 ± 0.073	0.913 ± 0.086	0.997 ± 0.26	0.927 ± 0.15	0.941 ± 0.11
E9PKF6 and related entries (UniProt Q5H9R7)	0.964 ± 0.032	0.96 ± 0.035	0.942 ± 0.043	0.955 ± 0.038	0.945 ± 0.057	0.943 ± 0.036
E7EVA8 and related entries (UniProt Q9BY41)	1.1 ± 0.053	1.02 ± 0.063	1.01 ± 0.076	1 ± 0.14	1.07 ± 0.055	1.04 ± 0.12
E9PLV1 and related entries (UniProt Q9NQV6)	0.962 ± 0.051	0.956 ± 0.091	0.983 ± 0.068	0.954 ± 0.046	0.939 ± 0.073	0.94 ± 0.063
E7ERK9 and related entries (UniProt Q9UI10)	0.971 ± 0.054	0.991 ± 0.033	1 ± 0.032	0.943 ± 0.031	1.02 ± 0.035	1.05 ± 0.048
F8WF69 and related entries (UniProt P09496)	1 ± 0.063	1.05 ± 0.09	1.07 ± 0.029	1.19 ± 0.15	1.03 ± 0.021	1.02 ± 0.096
E9PIK4 and related entries (UniProt O14683)	0.966 ± 0.25	0.944 ± 0.19	0.977 ± 0.23	0.918 ± 0.22	0.942 ± 0.18	0.92 ± 0.16
E9PAV3-2|E9PAV3 and related entries (UniProt Q13765+H0YHX9+F8VZJ2+E9PAV3)	0.994 ± 0.073	1.11 ± 0.023	1.12 ± 0.032	1.1 ± 0.089	1.119 ± 0.0068	1.18 ± 0.02
F5H5I6 and related entries (UniProt Q12849)	0.99 ± 0.028	0.994 ± 0.0096	0.994 ± 0.013	1.01 ± 0.028	0.97 ± 0.023	0.961 ± 0.011
F5H365 and related entries (UniProt Q15436)	1.05 ± 0.13	1.02 ± 0.077	1.03 ± 0.055	0.961 ± 0.092	0.987 ± 0.04	1.01 ± 0.047
F6UZG9 and related entries (UniProt Q8NFZ0)	1.05 ± 0.24	0.941 ± 0.14	0.962 ± 0.12	0.922 ± 0.14	1.01 ± 0.094	0.922 ± 0.094
F8VXG7 and related entries (UniProt Q99590)	1.26 ± 0.13	1.3 ± 0.065	1.32 ± 0.087	1.39 ± 0.075	1.32 ± 0.049	1.34 ± 0.029
E9PFI7 and related entries (UniProt Q8N3A8)	1 ± 0.087	1.07 ± 0.13	1.18 ± 0.086	1.07 ± 0.14	1.04 ± 0.13	1.05 ± 0.059
G3V1S4 and related entries (UniProt Q9Y324)	1.2 ± 0.015	1.15 ± 0.094	1.28 ± 0.069	1.34 ± 0.044	1.48 ± 0.02	1.51 ± 0.11
E9PJM3 and related entries (UniProt Q9UK99)	1.05 ± 0.068	1.05 ± 0.12	1.05 ± 0.052	1.01 ± 0.11	1.02 ± 0.053	0.993 ± 0.074
E9PGT1 (UniProt Q15631)	1.02 ± 0.074	0.953 ± 0.048	0.946 ± 0.052	0.912 ± 0.058	0.988 ± 0.057	0.9 ± 0.049
E7END7 and related entries (UniProt P62820)	0.99 ± 0.058	0.988 ± 0.02	0.956 ± 0.032	1 ± 0.032	0.932 ± 0.022	0.953 ± 0.033
E9PI54 and related entries (UniProt Q06609)	1.04 ± 0.043	1.08 ± 0.039	1.03 ± 0.034	1.06 ± 0.092	1.02 ± 0.028	1.02 ± 0.04
E9PM19 and related entries (UniProt P29597)	1.4 ± 0.019	1.31 ± 0.043	1.38 ± 0.044	1.31 ± 0.13	1.43 ± 0.12	1.39 ± 0.016

Single records (already shown):
F5H5I6 and related entries (UniProt Q12849) in the list: NP40-soluble protein abundance (concentration: 1mM): 0.99 ± 0.028; NP40-soluble protein abundance (concentration: 2mM): 0.994 ± 0.0096; NP40-soluble protein abundance (concentration: 4mM): 0.994 ± 0.013; NP40-soluble protein abundance (concentration: 6mM): 1.01 ± 0.028; NP40-soluble protein abundance (concentration: 8mM): 0.97 ± 0.023; NP40-soluble protein abundance (concentration: 10mM): 0.961 ± 0.011
F8WB06 and related entries (UniProt Q99700) in the list: NP40-soluble protein abundance (concentration: 1mM): 1 ± 0.014; NP40-soluble protein abundance (concentration: 2mM): 1.04 ± 0.026; NP40-soluble protein abundance (concentration: 4mM): 1.09 ± 0.04; NP40-soluble protein abundance (concentration: 6mM): 1.15 ± 0.07; NP40-soluble protein abundance (concentration: 8mM): 1.14 ± 0.034; NP40-soluble protein abundance (concentration: 10mM): 1.17 ± 0.041
